From US10202420B2, “Methods and compositions for treatment of cartilage and disc tissue pathologies” (THE ROYAL INSTITUTION FOR ADVANCEMENT OF LEARNING/MCGILL …, priority 2013, dated 2019)
Part of at least one peptide drawing is inferred or uncertain, most often the ends. Where no end group is shown, it is not given here.

Key:
[1] = tested on: bovine annulus fibrosus (AF) cells; test: Proteoglycan synthesis by 35SO4 incorporation, cells in alginate beads; format: cell-based; conditions: 48 h
Description: (§1) Human and bovine IVDs were separated from the adjoining vertebral body and divided into NP and AF for bovine IVDs and NP and inner annulus fibrosus (iAF) for human IVDs. Tissue from the human outer annulus fibrosus (oAF) was not used for cell isolation in this study. Cells were enzymatically isolated from each region as previously described (63). Briefly, NP and AF tissues were dissected into approximately 2-mm thick pieces, washed twice in PBS containing 50 μg/mL gentamicin, […] and 0.25 μg/mL fungizone, then digested with 0.2% pronase for 1 h, followed by collagenase type IA at 0.01% for NP and 0.04% for AF tissue for 4 h in serum free DMEM.
(§2) To compare the metabolic response to the various Link N peptides, freshly isolated human and bovine cells from NP and AF regions were embedded in 1.2% alginate beads, as previously described (65). Cells in alginate beads were cultured at 37° C., 5% CO2 in DMEM, containing 4.5 g/L glucose and supplemented with 10% FCS, 25 mmol/L HEPES, 50 μg/mL gentamicin sulphate, 0.25 μg/mL fungizone, 50 μg/mL L-ascorbate, and 2 mmol/L GlutaMAX. The beads were stabilized for 7 days and cell viability was assessed by Live/Dead® assay prior to further treatment. 5 beads per well were then cultured in 48 well plates in the presence of equimolar concentrations of either Link N (1 μg/mL), R-Link N (1 μg/mL), S-Link N (1 μg/mL), Link N 1-8 (0.5 μg/mL) or Link N 9-16 (0.5 μg/mL) in 0.5 mL DMEM. 25 μCi/mL ^35SO4 was added to the medium to allow assessment of proteoglycan synthesis (66). In addition, beads were exposed for 48 h to IL-1β (10 ng/mL) alone, or to a combination of peptides and IL-1β (51). At the end of the culture period, medium was collected and dialyzed exhaustively against miliQ water at […] (Spectra/Por® 3), followed by cold chase with 1M MgSO4 for 2 h to remove any remaining unincorporated ^35SO4. The ^35SO4 incorporation was measured using a beta scintillation counter (Beckman Coulter LS6500, Beckman Coulter, Mississauga, Canada).

[2] = tested on: bovine nucleus pulposus (NP) cells; test: as above; format: cell-based; conditions: 48 h
Description: as §1, §2

[3] = tested on: aggrecan core protein; test: Aggrecan core protein by Western blot, bovine disc organ culture; format: cell-based; conditions: Link N 75 μg, MSCs 10^5 cells or both; 14 days; vs degeneration control discs
Text: The largest first 3-4 caudal discs were isolated from the tails of 24- to 30-month-old steers, as described previously (21,22). Briefly, the tails were dissected free of skin, muscles and ligaments, and pedicles for each segment were removed. The bone and the adjacent calcified part of the cartilaginous endplate were removed, so that the surface of the disc was soft and flexible without detectable calcified tissue. After the discs were rinsed in PBS supplemented with 1,000 U/mL penicillin, 1,000 μg/mL streptomycin and 0.25 μg/mL fungizone (GIBCO, Burlington, Canada), they were preconditioned for 3 days in sterile 80 mL specimen containers (STARPLEX Scientific, Etobicoke, Canada) containing 50 mL culture medium. (DMEM with 2 mM Glutamax and 25 mM Hepes, supplemented with 5% FBS, 100 U/mL penicillin, 100 μg/mL streptomycin, 50 μg/mL L-ascorbate). Degeneration was induced by a single injection of 100 μg trypsin (Sigma-Aldrich) dissolved in 75 μL PBS into the center of the disc using a 28 G½ needle (21) The needle was placed on top of the disc to measure the distance needed to reach the center and was then inserted to the same depth. […] The number of MSCs used was based on a study by Liebscher et al (23), which measured the cell density of healthy human discs. […]
The remaining nucleus pulposus (NP) tissue was collected and the wet weight was recorded (21). […]

[4] = tested on: aggrecan (AGG); test: Aggrecan (AGG) gene expression, real time PCR, AF cells; format: cell-based, bovine; conditions: 1 μg/mL, 1 week, relative to CTL
[5] = tested on: Smad1/5; test: Smad1/5 activation, immunoblotting, AF cells; format: cell-based, bovine; conditions: 1 μg/ml
[6] = 16-mer peptides 1 μg/mL, 8-mer peptides 0.5 μg/mL, vs medium alone
[7] = IL-1β 10 ng/mL, vs IL-1-containing medium

Sequence: DHLSDNYTLDHDRAIH [Link N, DHLSDNYTLDHDRAIH]
- proteoglycan synthesis (35SO4 incorporation) [1, 6]: statistically significant increase
- proteoglycan synthesis (35SO4 incorporation) in the presence of IL-1β [1, 7]: can promote proteoglycan synthesis
- proteoglycan synthesis (35SO4 incorporation) [2, 6]: statistically significant increase
- proteoglycan synthesis (35SO4 incorporation) in the presence of IL-1β [2, 7]: can promote proteoglycan synthesis
- quantity of intact aggrecan core protein [3]: significantly increased the quantity to a level comparable to the non-degenerate control discs
- AGG gene expression [4]: upregulated
- time to Smad1/5 activation [5]: ≤ 5 min
- Smad1/5 levels after 6 hours ([5]; 6 hours): decreased to below the control levels
